According to the supplement of paper PMC10849652:
This is one part of the list. Residues, ends and D or L forms follow the SMILES beside them. *: point of attachment. Cbz = O=C(OCc1ccccc1)*

Sequences of proteins named here, by UniProt entry; tags and fusion partners are left off. A change or cut given only in a name is not applied to a line headed by its entry.
UniProt O00628: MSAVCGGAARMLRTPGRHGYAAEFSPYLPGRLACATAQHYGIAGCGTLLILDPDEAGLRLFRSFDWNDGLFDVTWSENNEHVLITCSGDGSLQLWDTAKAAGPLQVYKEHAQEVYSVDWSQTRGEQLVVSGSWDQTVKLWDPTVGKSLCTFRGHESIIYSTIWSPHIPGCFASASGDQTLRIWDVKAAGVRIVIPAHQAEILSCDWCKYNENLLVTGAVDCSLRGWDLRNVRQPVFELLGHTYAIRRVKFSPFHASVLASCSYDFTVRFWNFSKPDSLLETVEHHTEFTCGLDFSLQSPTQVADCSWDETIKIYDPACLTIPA
UniProt A6NDG6: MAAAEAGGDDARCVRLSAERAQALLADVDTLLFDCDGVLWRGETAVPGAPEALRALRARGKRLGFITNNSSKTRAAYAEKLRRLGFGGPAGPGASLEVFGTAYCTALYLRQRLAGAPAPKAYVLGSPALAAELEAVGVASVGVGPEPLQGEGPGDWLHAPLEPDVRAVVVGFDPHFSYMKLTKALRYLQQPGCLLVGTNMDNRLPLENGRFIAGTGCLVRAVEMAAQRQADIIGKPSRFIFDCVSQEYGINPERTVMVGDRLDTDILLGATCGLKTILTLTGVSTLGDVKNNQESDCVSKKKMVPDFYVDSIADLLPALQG
UniProt Q92508: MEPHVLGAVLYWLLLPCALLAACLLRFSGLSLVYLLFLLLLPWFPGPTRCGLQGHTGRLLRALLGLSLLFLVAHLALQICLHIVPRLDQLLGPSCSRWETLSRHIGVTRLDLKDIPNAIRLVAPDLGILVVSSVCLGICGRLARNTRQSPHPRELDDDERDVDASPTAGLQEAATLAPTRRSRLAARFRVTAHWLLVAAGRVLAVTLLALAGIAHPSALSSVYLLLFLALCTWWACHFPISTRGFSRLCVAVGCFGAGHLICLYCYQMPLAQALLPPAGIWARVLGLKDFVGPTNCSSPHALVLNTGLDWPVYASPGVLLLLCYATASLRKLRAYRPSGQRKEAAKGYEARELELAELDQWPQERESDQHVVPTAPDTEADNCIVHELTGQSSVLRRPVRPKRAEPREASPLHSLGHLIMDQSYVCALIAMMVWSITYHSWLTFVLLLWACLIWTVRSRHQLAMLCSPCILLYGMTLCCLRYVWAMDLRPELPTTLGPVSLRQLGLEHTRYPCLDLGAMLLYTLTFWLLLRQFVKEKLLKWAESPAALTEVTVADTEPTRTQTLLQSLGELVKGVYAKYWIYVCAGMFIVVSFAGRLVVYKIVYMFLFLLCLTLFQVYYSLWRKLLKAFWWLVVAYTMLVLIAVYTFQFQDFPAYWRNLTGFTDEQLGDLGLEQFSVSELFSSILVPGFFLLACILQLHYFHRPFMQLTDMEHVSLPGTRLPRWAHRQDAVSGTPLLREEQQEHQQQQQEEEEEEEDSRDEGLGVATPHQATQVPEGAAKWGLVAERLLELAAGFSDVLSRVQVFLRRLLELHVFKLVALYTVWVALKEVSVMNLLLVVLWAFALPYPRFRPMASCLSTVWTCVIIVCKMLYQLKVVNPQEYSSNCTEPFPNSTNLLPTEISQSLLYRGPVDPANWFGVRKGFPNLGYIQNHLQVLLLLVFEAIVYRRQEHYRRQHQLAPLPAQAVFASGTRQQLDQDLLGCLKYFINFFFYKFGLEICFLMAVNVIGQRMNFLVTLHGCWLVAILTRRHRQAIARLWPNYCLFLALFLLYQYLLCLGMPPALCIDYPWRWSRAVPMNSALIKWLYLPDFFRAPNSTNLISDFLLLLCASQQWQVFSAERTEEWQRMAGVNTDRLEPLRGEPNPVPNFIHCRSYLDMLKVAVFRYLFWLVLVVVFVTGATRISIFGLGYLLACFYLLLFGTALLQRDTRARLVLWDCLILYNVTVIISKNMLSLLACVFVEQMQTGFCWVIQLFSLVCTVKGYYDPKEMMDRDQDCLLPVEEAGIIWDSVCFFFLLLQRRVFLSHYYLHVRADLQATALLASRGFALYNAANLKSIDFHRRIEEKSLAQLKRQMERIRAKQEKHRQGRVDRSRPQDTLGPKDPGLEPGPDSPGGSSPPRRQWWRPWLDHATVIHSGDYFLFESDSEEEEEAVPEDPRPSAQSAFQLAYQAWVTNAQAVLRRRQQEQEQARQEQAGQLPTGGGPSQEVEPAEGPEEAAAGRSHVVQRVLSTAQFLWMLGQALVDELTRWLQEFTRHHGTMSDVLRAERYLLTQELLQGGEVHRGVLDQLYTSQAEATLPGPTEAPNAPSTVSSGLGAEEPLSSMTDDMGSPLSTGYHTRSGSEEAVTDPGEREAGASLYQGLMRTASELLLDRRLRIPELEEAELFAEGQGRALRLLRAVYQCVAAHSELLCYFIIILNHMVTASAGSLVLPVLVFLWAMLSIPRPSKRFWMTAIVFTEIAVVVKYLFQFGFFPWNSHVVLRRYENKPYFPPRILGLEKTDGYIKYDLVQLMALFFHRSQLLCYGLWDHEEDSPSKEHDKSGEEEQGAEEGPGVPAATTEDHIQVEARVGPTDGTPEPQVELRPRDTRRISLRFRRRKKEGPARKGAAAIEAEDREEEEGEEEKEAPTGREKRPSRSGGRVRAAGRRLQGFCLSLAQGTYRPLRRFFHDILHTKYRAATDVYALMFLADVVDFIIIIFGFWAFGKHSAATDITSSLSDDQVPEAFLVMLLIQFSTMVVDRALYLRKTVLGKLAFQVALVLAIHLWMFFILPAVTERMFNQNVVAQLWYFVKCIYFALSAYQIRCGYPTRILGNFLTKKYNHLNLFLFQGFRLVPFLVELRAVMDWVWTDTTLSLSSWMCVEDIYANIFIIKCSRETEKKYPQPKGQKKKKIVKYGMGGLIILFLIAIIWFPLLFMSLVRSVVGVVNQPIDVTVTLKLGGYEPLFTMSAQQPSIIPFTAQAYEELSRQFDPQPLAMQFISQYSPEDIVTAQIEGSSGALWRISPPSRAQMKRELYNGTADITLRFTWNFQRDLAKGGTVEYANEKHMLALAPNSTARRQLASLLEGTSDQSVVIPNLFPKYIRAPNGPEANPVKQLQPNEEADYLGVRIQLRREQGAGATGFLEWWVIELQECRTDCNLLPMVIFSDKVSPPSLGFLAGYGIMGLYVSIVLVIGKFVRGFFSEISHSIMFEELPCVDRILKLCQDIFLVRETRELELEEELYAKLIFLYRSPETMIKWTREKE
UniProt Q13393: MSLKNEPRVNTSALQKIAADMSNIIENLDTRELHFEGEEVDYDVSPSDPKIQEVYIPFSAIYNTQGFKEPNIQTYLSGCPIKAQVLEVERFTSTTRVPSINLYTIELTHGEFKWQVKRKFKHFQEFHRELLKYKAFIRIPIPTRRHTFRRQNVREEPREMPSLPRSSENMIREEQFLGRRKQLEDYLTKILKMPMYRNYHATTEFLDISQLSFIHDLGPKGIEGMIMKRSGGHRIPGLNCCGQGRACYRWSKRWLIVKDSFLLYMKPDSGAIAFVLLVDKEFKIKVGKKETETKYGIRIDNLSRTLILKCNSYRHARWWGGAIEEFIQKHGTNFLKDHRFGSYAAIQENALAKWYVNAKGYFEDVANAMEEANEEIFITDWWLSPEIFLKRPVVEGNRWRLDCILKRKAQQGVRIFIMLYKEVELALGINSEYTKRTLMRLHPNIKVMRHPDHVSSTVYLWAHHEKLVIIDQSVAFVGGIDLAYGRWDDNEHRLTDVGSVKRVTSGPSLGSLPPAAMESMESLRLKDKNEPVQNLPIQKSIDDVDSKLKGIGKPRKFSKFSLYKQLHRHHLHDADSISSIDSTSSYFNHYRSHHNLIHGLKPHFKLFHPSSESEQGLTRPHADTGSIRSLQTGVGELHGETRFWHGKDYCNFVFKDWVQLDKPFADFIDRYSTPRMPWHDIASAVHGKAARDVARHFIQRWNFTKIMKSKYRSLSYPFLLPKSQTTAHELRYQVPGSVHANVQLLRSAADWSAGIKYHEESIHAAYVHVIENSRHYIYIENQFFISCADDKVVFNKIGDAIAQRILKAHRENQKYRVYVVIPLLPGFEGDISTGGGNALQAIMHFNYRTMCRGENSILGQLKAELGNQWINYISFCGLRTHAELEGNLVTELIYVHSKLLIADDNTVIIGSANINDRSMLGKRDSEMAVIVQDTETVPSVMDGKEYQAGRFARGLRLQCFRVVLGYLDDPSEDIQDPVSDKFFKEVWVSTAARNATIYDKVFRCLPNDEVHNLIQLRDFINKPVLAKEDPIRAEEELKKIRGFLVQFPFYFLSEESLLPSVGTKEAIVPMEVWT
UniProt Q9Y2B2: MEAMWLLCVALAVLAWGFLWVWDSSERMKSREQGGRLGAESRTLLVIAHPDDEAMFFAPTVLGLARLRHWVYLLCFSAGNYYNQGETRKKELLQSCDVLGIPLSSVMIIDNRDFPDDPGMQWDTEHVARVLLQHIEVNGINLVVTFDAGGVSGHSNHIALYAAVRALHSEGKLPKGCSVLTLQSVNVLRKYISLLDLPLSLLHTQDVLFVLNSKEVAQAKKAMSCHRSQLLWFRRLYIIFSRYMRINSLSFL
UniProt P42338: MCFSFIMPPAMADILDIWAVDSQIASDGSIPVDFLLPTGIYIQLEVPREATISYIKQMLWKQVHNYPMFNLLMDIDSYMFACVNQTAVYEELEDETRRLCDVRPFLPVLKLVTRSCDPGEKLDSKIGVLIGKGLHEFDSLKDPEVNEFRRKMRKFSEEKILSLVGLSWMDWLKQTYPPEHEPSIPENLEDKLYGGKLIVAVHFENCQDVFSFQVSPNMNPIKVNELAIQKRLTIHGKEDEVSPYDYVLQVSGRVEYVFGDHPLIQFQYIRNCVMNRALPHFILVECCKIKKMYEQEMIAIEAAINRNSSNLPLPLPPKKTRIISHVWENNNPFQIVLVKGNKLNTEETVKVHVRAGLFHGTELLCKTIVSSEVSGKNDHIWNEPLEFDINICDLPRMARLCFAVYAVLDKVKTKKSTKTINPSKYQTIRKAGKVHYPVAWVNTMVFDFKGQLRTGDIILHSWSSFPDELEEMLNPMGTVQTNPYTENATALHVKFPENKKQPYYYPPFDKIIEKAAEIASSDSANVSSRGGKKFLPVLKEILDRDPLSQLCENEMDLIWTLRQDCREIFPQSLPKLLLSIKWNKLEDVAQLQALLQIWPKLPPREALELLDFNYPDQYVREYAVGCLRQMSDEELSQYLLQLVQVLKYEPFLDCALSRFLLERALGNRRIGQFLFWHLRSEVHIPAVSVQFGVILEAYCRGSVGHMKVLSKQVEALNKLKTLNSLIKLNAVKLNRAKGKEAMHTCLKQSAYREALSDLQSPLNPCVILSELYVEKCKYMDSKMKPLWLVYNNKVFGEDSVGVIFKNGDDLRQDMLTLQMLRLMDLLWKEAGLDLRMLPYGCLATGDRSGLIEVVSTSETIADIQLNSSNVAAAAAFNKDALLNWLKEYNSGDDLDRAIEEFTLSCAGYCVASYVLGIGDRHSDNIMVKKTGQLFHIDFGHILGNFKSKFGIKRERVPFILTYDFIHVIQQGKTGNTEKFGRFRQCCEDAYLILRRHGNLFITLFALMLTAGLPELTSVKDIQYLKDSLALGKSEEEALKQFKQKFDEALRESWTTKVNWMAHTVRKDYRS
UniProt Q9UG56: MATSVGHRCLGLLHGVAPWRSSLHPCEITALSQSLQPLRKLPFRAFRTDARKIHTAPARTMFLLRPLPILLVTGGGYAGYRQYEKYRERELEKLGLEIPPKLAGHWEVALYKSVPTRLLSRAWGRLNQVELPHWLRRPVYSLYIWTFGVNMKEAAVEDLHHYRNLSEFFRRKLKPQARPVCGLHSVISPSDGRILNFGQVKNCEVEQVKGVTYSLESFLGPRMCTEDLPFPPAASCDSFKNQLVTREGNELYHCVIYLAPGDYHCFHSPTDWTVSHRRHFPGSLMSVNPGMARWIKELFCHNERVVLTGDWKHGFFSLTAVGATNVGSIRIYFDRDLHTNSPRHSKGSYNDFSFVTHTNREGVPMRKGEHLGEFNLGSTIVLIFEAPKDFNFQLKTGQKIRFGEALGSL
UniProt Q16875: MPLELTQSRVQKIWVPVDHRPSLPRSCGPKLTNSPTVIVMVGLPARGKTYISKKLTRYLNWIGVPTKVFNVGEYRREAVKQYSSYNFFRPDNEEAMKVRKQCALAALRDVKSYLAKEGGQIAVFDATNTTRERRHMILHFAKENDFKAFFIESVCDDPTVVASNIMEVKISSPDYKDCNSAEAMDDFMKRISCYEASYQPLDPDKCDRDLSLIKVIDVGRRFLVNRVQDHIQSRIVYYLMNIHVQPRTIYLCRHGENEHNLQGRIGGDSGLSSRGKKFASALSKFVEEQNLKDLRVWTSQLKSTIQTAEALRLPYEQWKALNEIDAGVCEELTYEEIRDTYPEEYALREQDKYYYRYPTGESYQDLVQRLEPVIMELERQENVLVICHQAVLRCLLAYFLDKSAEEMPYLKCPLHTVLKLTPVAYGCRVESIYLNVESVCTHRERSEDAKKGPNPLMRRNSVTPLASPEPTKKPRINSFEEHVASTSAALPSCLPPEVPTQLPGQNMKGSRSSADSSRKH

How the values were obtained:
Test in all cases: log2 fold change, soluble protein after heating vs DMSO (PISA); higher = thermal stabilisation; K562 cells, 10 uM, 30 min; active = over 0.2 and 3.5 SD of the protein, either way, in both replicates (recomputed)
IRAK-1-4 Inhibitor I = compound: C1COCCN1CCN2C3=CC=CC=C3N=C2NC(=O)C4=CC(=CC=C4)[N+](=O)[O-] [IRAK-1-4 Inhibitor I]
Outline: (§1)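 Aliquots of K562 cells (2×10^6 cells/mL) treated with 10 μM compound for 30 min were heated for 3 min over 48°C-58°C. After pooling and extraction in PBS with 0.5% NP-40 at 4°C, soluble protein from a 21,000xg, 90 min spin was quantified by TMTpro 16plex LC-MS/MS with channel sums equalised. Thermal stability is expressed against control samples, from duplicates, as a log2 fold change.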

ibrutinib = compound: C=CC(=O)N1CCC[C@@H](n2nc(-c3ccc(Oc4ccccc4)cc3)c3c(N)ncnc32)C1 [ibrutinib]
Outline: as §1

[1] = compound: CC(=O)c1cnc2ccc(-c3cc(Cl)c(O)c(Cl)c3)nc2c1N[C@H]1CC[C@H](CN(C)C)CC1
Outline: as §1

ralimetinib = compound: CC(C)(C)Cn1c(N)nc2ccc(-c3[nH]c(C(C)(C)C)nc3-c3ccc(F)cc3)nc21 [ralimetinib]
Outline: as §1

[2] = compound: CC(C)(O)CC(=O)NCCn1ccc2ncnc(Nc3ccc(Oc4cccc(C(F)(F)F)c4)c(Cl)c3)c21
Outline: as §1

[3] = compound: CC(C)C1=C2N=C(C=C(N2N=C1)NCC3=CC=CC=C3)NCCCCCCN
Outline: as §1

[4] = compound: CC(C)C[C@@H](C=O)NC(=O)[C@H](CC(C)C)NC(=O)[C@H](CC(C)C)NC(=O)OCc1ccccc1
Outline: as §1

pinometostat = compound: CC(C)N(C[C@H]1O[C@@H](n2cnc3c(N)ncnc32)[C@H](O)[C@@H]1O)[C@H]1C[C@@H](CCc2nc3cc(C(C)(C)C)ccc3[nH]2)C1 [pinometostat]
Outline: as §1

[5] = compound: CC1=C(C(CC(=O)N1)C2=CC=C(C=C2)C(F)(F)F)C(=O)NC3=C(C=C4C(=C3)C=NN4)F
Outline: as §1

[6] = compound: CC1=C(C2=C(C=C1)C(=O)C3=CC=CC=C3N2CCCN)C
Outline: as §1

[7] = compound: CC1=C(C=C(C=C1)NC(=O)C2=CC(=CC=C2)C(C)(C)C#N)NC3=CC4=C(C=C3)N=CN(C4=O)C
Outline: as §1

[8] = compound: CC1=C(C=C(C=C1)NC(=O)C2=CC(=CC=C2)N(C)C)NC(=O)C3=CC=C(C=C3)O
Outline: as §1

[9] = compound: CC1=CC=C(C=C1)SC2=C3C=C(SC3=CN=C2)C(=O)N
Outline: as §1

[10] = compound: CC1=NC(=CC=C1)C2=C(N=C(N2)C(C)(C)C)C3=CC4=NC=CN=C4C=C3
Outline: as §1

Nexturastat A = compound: CCCCN(Cc1ccc(C(=O)NO)cc1)C(=O)Nc1ccccc1 [Nexturastat A]
Outline: as §1

vemurafenib = compound: CCCS(=O)(=O)Nc1ccc(F)c(C(=O)c2c[nH]c3ncc(-c4ccc(Cl)cc4)cc23)c1F [vemurafenib]
Outline: as §1

[11] = compound: CCCS(=O)(=O)Nc1ccc(F)c(C(=O)c2c[nH]c3ncc(Cl)cc23)c1F
Outline: as §1

[12] = compound: CCCc1cc(C)[nH]c(=O)c1CNC(=O)c1cc(-c2ccnc(N3CCN(C)CC3)c2)cc2c1cnn2C(C)C
Outline: as §1

givinostat = compound: CCN(CC)Cc1ccc2cc(COC(=O)Nc3ccc(C(=O)NO)cc3)ccc2c1 [givinostat]
Outline: as §1

barasertib = compound: CCN(CCCOc1ccc2c(Nc3cc(CC(=O)Nc4cccc(F)c4)[nH]n3)ncnc2c1)CCOP(=O)(O)O [barasertib]
Outline: as §1

Measured: log2 fold change

PFKFB4 (UniProt Q16877)
inactive: IRAK-1-4 Inhibitor I -0.003 | ibrutinib 0.023 | [1] -0.036 | ralimetinib -0.013 | [2] 0.006 | [3] 0.02 | [4] 0.032 | pinometostat 0.072 | [5] 0.003 | [6] 0.032 | [7] -0.02 | [8] 0.049 | [9] -0.02 | [10] 0.011 | Nexturastat A 0.021 | vemurafenib -0.018 | [11] 0.014 | [12] -0.006 | givinostat 0.047 | barasertib 0.05

PEX7 (UniProt O00628)
inactive: IRAK-1-4 Inhibitor I 0.03 | ibrutinib -0.092 | [1] -0.106 | ralimetinib -0.064 | [2] -0.057 | [3] -0.006 | [4] 0.003 | pinometostat -0.034 | [6] 0.033 | [7] 0.061 | [8] -0.011 | [9] 0.025 | [10] -0.066 | Nexturastat A -0.041 | vemurafenib -0.049 | [11] 0.007 | [12] -0.035 | givinostat -0.107 | barasertib -0.089

PGP (UniProt A6NDG6)
inactive: IRAK-1-4 Inhibitor I 0.017 | ibrutinib -0.027 | [1] -0.009 | ralimetinib -0.028 | [2] -0.018 | [3] 0.062 | [4] -0.018 | pinometostat -0.068 | [5] 0.008 | [6] -0.02 | [7] 0.007 | [8] -0.014 | [9] 0.027 | [10] 0.019 | Nexturastat A -0.132 | vemurafenib -0.027 | [11] 0.017 | [12] 0.013 | givinostat -0.001 | barasertib 0.001

Retrieved one by one from the entries so far, two records:
PEX7 (UniProt O00628)
inactive: IRAK-1-4 Inhibitor I 0.03 | ibrutinib -0.092 | [1] -0.106 | ralimetinib -0.064 | [2] -0.057 | [3] -0.006 | [4] 0.003 | pinometostat -0.034 | [6] 0.033 | [7] 0.061 | [8] -0.011 | [9] 0.025 | [10] -0.066 | Nexturastat A -0.041 | vemurafenib -0.049 | [11] 0.007 | [12] -0.035 | givinostat -0.107 | barasertib -0.089

PFKFB4 (UniProt Q16877)
inactive: IRAK-1-4 Inhibitor I -0.003 | ibrutinib 0.023 | [1] -0.036 | ralimetinib -0.013 | [2] 0.006 | [3] 0.02 | [4] 0.032 | pinometostat 0.072 | [5] 0.003 | [6] 0.032 | [7] -0.02 | [8] 0.049 | [9] -0.02 | [10] 0.011 | Nexturastat A 0.021 | vemurafenib -0.018 | [11] 0.014 | [12] -0.006 | givinostat 0.047 | barasertib 0.05

Following part

PIEZO1 (UniProt Q92508)
inactive: IRAK-1-4 Inhibitor I 0.007 | ibrutinib 0.061 | [1] -0.015 | ralimetinib 0.017 | [2] 0.019 | [3] 0.108 | [4] 0.021 | pinometostat -0.008 | [5] 0.026 | [6] -0.022 | [7] -0.107 | [8] -0.009 | [9] -0.048 | [10] 0 | Nexturastat A -0.029 | vemurafenib -0.072 | [11] 0.008 | [12] -0.02 | givinostat -0.039 | barasertib -0.024

PGAM1 (UniProt P18669)
inactive: IRAK-1-4 Inhibitor I 0.047 | ibrutinib 0.029 | [1] 0.003 | ralimetinib 0.005 | [2] 0.009 | [3] 0.037 | [4] 0.117 | pinometostat -0.003 | [5] 0.071 | [6] -0.002 | [7] 0.016 | [8] 0.005 | [9] 0.016 | [10] 0 | Nexturastat A -0.005 | vemurafenib 0.019 | [11] 0.024 | [12] -0.016 | givinostat -0.029 | barasertib -0.011

PEX19 (UniProt P40855)
inactive: IRAK-1-4 Inhibitor I 0.033 | ibrutinib 0.017 | [1] 0.035 | ralimetinib 0.029 | [2] 0.009 | [3] 0.072 | [4] 0.063 | pinometostat -0.024 | [5] 0.028 | [6] -0.035 | [7] -0.011 | [8] -0.001 | [9] 0.008 | [10] -0.009 | Nexturastat A 0.004 | vemurafenib 0.01 | [11] -0.001 | [12] -0.036 | givinostat 0.017 | barasertib 0.002

PLD1 (UniProt Q13393)
inactive: IRAK-1-4 Inhibitor I -0.062 | ibrutinib -0.004 | [1] -0.282 | ralimetinib 0.142 | [2] 0.103 | [3] -0.415 | [4] 0.093 | pinometostat 0.197 | [5] 0.193 | [6] 0.034 | [7] 0.084 | [8] 0.002 | [9] -0.027 | [10] -0.051 | Nexturastat A 0.334 | vemurafenib -0.023 | [11] 0 | [12] 0.054 | givinostat -0.004 | barasertib 0.021

PLEC (UniProt Q15149)
inactive: IRAK-1-4 Inhibitor I -0.026 | ibrutinib 0.009 | [1] -0.034 | ralimetinib 0.162 | [2] 0.003 | [3] -0.089 | [4] 0.085 | pinometostat 0.11 | [5] 0.004 | [6] -0.082 | [7] -0.006 | [8] -0.015 | [9] -0.018 | [10] -0.087 | Nexturastat A 0.173 | vemurafenib -0.059 | [11] -0.032 | [12] 0.013 | givinostat 0.077 | barasertib -0.067

PITHD1 (UniProt Q9GZP4)
inactive: IRAK-1-4 Inhibitor I 0.081 | ibrutinib 0.048 | [1] -0.022 | ralimetinib -0.08 | [2] 0.059 | [3] 0.128 | [4] 0.031 | pinometostat 0.007 | [5] 0.034 | [6] 0 | [7] 0.012 | [8] 0.034 | [9] 0.023 | [10] -0.086 | Nexturastat A -0.005 | vemurafenib -0.027 | [11] -0.11 | [12] -0.086 | givinostat -0.06 | barasertib 0.027

PIGQ (UniProt Q9BRB3)
inactive: IRAK-1-4 Inhibitor I -0.04 | ibrutinib 0.097 | [1] 0.03 | ralimetinib -0.03 | [2] -0.094 | [3] 0.186 | [4] 0.161 | pinometostat 0.138 | [5] -0.094 | [6] 0.022 | [7] -0.18 | [8] 0.131 | [10] -0.058 | Nexturastat A 0.191 | vemurafenib -0.019 | [12] 0.241 | givinostat -0.043 | barasertib -0.048

PIGL (UniProt Q9Y2B2)
inactive: IRAK-1-4 Inhibitor I 0.104 | ibrutinib -0.003 | [1] 0.034 | ralimetinib -0.111 | [2] 0.005 | [3] -0.064 | [4] 0.045 | pinometostat 0.005 | [5] 0.08 | [6] -0.117 | [8] -0.05 | [10] 0.062 | Nexturastat A -0.192 | vemurafenib 0.03 | [12] 0.129 | givinostat 0.029 | barasertib 0.008

PIK3CB (UniProt P42338)
inactive: IRAK-1-4 Inhibitor I -0.051 | ibrutinib -0.049 | [1] 0.082 | ralimetinib 0.013 | [2] -0.082 | [3] -0.082 | [4] 0.02 | pinometostat -0.069 | [6] 0.041 | [7] -0.034 | [8] -0.009 | [9] 0.024 | [10] 0.054 | Nexturastat A 0.013 | vemurafenib 0.022 | [11] -0.001 | [12] -0.041 | givinostat 0.052 | barasertib 0.077

PEX6 (UniProt Q13608)
inactive: IRAK-1-4 Inhibitor I -0.024 | ibrutinib -0.024 | [1] -0.026 | ralimetinib -0.053 | [2] -0.101 | [3] 0.023 | [4] 0.012 | pinometostat -0.003 | [5] -0.03 | [6] 0.012 | [7] 0.079 | [8] -0.015 | [9] -0.021 | [10] 0.015 | Nexturastat A 0.009 | vemurafenib 0.039 | [11] 0.003 | [12] 0.005 | givinostat -0.032 | barasertib -0.003

PISD (UniProt Q9UG56)
inactive: IRAK-1-4 Inhibitor I -0.013 | ibrutinib -0.038 | [1] -0.068 | ralimetinib 0.02 | [2] -0.066 | [3] 0.001 | [4] 0.005 | pinometostat -0.013 | [6] 0.147 | [7] -0.015 | [8] 0.002 | [9] 0.013 | [10] 0.085 | Nexturastat A 0.022 | vemurafenib -0.068 | [11] 0.049 | [12] 0.009 | givinostat 0.024 | barasertib 0.026

PI4KB (UniProt Q9UBF8)
inactive: IRAK-1-4 Inhibitor I 0.061 | ibrutinib -0.052 | [1] -0.007 | ralimetinib -0.095 | [2] -0.111 | [3] -0.098 | [4] 0.033 | pinometostat 0.004 | [5] -0.009 | [6] 0.07 | [7] -0.013 | [8] -0.02 | [9] -0.025 | [10] 0.031 | Nexturastat A -0.045 | vemurafenib 0.076 | [11] 0.019 | [12] -0.006 | givinostat -0.013 | barasertib -0.016

PFKFB3 isoform 4 (UniProt Q16875)
inactive: IRAK-1-4 Inhibitor I 0.033 | ibrutinib 0.026 | [1] -0.039 | ralimetinib -0.034 | [2] -0.071 | [3] 0.007 | [4] -0.037 | pinometostat 0.001 | [5] 0.042 | [6] 0.104 | [7] -0.013 | [8] -0.017 | [9] 0.021 | [10] -0.004 | Nexturastat A -0.043 | vemurafenib 0.053 | [11] 0.027 | [12] 0.005 | givinostat -0.002 | barasertib 0.02
